Test results reported in paper PMC4177747, “Derlin-1 Regulates Mutant VCP-Linked Pathogenesis and Endoplasmic Reticulum Stress-Induced Apoptosis” (PLoS Genetics, 2014).
Results are given in words; binding and its absence hold for the method and conditions named. In cells and extracts the contact can be indirect. Some binding calls cover weakened binding; strength is not graded here. Blank lines part the entries; values can stand above or below the molecule they belong to.

Amino acid sequences for entries named in this document (tags omitted). A change or cut given only in a name is not applied to a line headed by its entry.
UniProt Q7KN62: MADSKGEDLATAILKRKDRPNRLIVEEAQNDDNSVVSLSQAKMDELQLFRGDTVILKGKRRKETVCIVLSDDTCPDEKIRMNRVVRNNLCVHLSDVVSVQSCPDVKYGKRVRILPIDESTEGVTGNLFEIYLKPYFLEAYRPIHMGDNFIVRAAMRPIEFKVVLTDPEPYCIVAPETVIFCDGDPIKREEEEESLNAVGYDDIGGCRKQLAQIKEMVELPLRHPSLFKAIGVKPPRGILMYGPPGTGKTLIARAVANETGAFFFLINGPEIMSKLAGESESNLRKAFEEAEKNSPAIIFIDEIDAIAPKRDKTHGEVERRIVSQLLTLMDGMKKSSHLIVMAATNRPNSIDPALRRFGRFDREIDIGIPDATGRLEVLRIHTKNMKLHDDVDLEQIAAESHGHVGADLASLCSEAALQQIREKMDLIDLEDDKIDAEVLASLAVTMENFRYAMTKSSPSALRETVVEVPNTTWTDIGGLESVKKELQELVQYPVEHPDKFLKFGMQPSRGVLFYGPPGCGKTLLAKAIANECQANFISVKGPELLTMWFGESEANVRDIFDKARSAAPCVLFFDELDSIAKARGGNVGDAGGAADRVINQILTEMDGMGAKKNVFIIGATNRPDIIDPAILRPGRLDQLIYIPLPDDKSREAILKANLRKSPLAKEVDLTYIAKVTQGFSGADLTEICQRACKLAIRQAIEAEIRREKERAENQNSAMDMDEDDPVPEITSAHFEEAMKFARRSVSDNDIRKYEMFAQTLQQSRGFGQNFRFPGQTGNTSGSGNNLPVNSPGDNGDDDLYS

Legend:
[1] = target: T1, Derlin-1 (wild-type, expressed from the UAS-derlin-1 transgene in hs>derlin-1 flies) (Drosophila) (UniProt Q9VQ57); test: co-IP; anti-Derlin-1 antiserum on protein A-agarose; whole fly lysates of heat-shocked hs-GAL4; tub-GAL80^ts flies; 4°C overnight; lysis buffer 0.5% Triton X-100, 10 mM Tris-HCl, 5 mM EDTA, 100 mM NaCl, pH 7.5; blot with anti-VCP and anti-Derlin-1
T1 sequence: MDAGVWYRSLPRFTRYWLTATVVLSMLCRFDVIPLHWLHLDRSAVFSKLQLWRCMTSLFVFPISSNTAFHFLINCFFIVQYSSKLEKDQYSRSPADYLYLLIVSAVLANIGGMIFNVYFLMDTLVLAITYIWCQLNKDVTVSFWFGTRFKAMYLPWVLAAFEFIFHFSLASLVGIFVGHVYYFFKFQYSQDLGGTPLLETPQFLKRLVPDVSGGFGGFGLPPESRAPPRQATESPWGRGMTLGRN

[2] = target: T2, Derlin-1 (endogenous, fly) (Drosophila (endogenous in flies)) (UniProt Q9VQ57); test: as above
T2 sequence: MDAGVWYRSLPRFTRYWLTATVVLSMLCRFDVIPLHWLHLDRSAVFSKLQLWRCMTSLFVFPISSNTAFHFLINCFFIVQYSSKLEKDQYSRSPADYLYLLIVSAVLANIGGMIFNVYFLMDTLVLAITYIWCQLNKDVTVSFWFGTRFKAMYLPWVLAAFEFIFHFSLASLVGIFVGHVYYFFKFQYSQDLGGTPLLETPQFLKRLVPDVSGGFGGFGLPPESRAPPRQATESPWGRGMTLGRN

[3] = target: TER94 (endogenous, the fly VCP homolog) (Drosophila (endogenous in flies)) (UniProt Q7KN62); test: co-IP; sequential IP: first round with anti-VCP on protein A-agarose (4 hours, 4°C), unbound supernatant then with anti-Derlin-1; lysates of flies fed 24 µM tunicamycin for 2, 4 and 6 days and untreated

binding [1]: binds
Molecule: TER94 (endogenous, the fly VCP homolog) (from UniProt Q7KN62 1-801)

binding [2]: binds
Molecule: TER94^A229E (pathogenic TER94 mutant, expressed from the UAS-TER94^A229E transgene) (from UniProt Q7KN62 1-801)

binding [3]: binds
B1: Derlin-1 (endogenous, fly) (natural protein, Drosophila (endogenous in flies), UniProt Q9VQ57 1-245, looked up)
chain: MDAGVWYRSLPRFTRYWLTATVVLSMLCRFDVIPLHWLHLDRSAVFSKLQLWRCMTSLFVFPISSNTAFHFLINCFFIVQYSSKLEKDQYSRSPADYLYLLIVSAVLANIGGMIFNVYFLMDTLVLAITYIWCQLNKDVTVSFWFGTRFKAMYLPWVLAAFEFIFHFSLASLVGIFVGHVYYFFKFQYSQDLGGTPLLETPQFLKRLVPDVSGGFGGFGLPPESRAPPRQATESPWGRGMTLGRN
notes: Derlin-1, Drosophila, endogenous protein of about 27 kD (predicted 28.25 kD); also called endogenous Derlin-1; source: endogenous, whole fly lysate
